These are yes or no findings as the source states them, for the method shown. Binding seen in cells or lysates may run through a third protein. Some entries that bind do so weakly or less than the wild type. For part of these data: Sequences can lack the tags named with a protein.
Experiments:
[1] = biological target: T1, menin (expressed from a transfected plasmid in HEK293 cells) (UniProt O00255); test: co-IP; menin immunoprecipitated (goat antibody from Bethyl, protein G agarose) from whole cell extracts of HEK293 cells transfected with menin and FBP1 plasmids; NP-40(2) buffer (150 mM NaCl, 1% TritonX-100, 50 mM Tris), 4°C; immunoblot for FBP1; IgG as control
T1 sequence: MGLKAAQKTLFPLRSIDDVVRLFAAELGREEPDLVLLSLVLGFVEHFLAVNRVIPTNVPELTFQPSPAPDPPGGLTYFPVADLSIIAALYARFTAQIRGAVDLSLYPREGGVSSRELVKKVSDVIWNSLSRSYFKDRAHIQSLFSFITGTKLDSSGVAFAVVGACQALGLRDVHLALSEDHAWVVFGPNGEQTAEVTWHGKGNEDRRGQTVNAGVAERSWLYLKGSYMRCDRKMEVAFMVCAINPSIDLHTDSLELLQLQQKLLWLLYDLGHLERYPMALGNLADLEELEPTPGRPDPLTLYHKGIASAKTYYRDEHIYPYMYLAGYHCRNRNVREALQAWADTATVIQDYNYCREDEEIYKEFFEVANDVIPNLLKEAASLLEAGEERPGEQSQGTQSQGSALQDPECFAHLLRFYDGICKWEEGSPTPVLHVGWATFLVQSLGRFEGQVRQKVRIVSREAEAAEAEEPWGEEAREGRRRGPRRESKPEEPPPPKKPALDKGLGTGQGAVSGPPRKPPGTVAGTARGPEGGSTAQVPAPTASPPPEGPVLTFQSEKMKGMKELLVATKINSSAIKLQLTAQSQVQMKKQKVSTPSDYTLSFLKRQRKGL

The chains behind the UniProt entries cited, without tags or fusion partners.
UniProt Q96AE4: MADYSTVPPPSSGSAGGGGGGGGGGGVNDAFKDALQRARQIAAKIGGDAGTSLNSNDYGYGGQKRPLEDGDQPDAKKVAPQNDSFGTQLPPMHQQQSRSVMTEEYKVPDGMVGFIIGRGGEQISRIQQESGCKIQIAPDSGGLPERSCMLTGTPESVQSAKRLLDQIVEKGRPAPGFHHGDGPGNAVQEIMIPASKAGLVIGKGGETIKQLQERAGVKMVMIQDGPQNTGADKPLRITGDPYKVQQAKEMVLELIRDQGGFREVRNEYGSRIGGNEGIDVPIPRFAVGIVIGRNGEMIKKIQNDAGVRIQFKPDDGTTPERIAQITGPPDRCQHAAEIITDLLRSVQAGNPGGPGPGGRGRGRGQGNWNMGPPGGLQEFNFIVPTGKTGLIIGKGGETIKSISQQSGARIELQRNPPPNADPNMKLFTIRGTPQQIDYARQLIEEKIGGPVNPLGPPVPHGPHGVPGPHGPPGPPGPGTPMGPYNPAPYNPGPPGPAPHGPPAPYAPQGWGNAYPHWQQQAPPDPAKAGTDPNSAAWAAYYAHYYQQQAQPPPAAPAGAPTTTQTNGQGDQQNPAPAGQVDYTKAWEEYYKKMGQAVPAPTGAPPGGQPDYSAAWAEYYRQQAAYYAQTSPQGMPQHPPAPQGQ

[2] = biological target: Flag-BAP (bacterial alkaline phosphatase) [phosphatase: P00634]; test: pull-down; Flag-menin or Flag-BAP beads (equal concentrations, purified from bacterial cells) incubated with whole cell lysates of HEK293 cells transfected with FBP1 plasmid, 4°C overnight; washed with 0.1% Triton in 1X PBS; immunoblot for FBP1; only the target purified
[3] = biological target: T2, Flag-menin (UniProt O00255); test: as above
T2 sequence: T1 sequence

“FBP1 (expressed from a transfected plasmid in HEK293 cells) (from UniProt Q96AE4 1-644)” was tested. Which binding [1] did it give?
The binding was “binds”.

What about the binding [2] of the same substance?
Its binding is “no binding”.

And the binding [3]?
Its binding is “binds”.

From paper PMC4123598
